Results are given in words; binding and its absence hold for the method and conditions named. Binding seen in cells or lysates may run through a third protein. Some results given as binding are weak or reduced against the parent protein; the word gives no strength. Tags and fused reporters may be left off the sequences shown.

The chains behind the UniProt entries cited, without tags or fusion partners.
UniProt P72772: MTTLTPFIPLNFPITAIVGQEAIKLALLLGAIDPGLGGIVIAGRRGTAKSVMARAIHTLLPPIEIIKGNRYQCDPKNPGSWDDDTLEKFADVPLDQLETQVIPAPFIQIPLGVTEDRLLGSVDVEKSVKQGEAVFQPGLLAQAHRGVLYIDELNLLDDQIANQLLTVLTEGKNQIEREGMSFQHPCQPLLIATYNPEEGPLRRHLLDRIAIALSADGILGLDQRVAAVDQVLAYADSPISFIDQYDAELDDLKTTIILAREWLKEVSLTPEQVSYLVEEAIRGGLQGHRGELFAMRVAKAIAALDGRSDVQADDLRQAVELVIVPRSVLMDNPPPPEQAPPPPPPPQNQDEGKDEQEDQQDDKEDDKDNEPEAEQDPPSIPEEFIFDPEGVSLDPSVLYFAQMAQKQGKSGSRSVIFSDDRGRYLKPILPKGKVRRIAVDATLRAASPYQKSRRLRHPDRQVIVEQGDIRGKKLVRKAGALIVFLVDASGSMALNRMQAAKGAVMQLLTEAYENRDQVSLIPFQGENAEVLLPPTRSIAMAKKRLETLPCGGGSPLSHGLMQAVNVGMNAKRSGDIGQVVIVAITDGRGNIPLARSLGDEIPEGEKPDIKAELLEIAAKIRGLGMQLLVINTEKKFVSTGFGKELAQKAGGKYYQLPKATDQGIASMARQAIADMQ

The target in the experiment is T1, StrepII-ChlH (N-terminally StrepII-tagged Synechocystis ChlH) (Synechocystis sp. PCC 6803) (UniProt P73020).
T1 sequence: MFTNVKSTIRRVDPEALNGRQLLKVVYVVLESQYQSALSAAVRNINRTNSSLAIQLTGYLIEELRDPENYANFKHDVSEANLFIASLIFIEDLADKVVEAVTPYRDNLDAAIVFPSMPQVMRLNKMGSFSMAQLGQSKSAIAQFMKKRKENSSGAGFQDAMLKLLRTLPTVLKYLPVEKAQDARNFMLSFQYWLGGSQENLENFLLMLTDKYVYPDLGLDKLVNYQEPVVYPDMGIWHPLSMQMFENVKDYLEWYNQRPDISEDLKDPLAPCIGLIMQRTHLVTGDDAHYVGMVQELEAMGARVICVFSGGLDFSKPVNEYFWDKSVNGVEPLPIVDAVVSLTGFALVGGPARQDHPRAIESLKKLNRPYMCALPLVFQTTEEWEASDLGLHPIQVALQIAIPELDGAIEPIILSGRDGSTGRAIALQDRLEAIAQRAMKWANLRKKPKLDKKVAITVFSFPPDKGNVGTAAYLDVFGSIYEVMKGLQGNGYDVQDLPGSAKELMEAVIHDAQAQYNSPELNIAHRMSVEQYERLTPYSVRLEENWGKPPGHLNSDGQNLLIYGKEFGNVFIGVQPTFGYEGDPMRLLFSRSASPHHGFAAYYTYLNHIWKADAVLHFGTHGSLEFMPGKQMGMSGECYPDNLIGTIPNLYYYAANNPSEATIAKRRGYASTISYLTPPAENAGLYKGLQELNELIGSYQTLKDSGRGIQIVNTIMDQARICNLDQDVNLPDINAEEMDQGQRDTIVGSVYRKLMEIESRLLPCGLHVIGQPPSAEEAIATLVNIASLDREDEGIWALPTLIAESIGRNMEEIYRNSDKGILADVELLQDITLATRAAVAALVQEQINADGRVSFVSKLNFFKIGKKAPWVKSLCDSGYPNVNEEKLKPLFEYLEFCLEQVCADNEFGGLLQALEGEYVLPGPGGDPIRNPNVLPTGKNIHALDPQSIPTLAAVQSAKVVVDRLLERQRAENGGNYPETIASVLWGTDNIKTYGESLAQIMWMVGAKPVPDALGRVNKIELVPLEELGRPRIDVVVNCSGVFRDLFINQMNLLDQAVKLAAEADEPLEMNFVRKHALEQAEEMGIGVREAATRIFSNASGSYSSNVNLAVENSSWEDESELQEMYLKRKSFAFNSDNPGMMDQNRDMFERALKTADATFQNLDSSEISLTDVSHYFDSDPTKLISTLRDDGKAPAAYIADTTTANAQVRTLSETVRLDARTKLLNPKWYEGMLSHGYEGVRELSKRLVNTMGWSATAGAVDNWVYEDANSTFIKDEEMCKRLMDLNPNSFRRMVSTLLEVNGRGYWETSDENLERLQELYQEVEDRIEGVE
Description: pull-down; StrepII-ChlH and untagged ChlD co-produced in E. coli; supernatant on a StrepTrap HP column; 100 mM Tris HCl, 1 mM EDTA, pH 8; eluted with 2.5 mM desthiobiotin; SDS-PAGE and Western blot. For orientation: Immunoblotting shows a protein as a band on a membrane.

With “untagged ChlD (Synechocystis, co-produced with StrepII-ChlH) (from UniProt P72772 1-676)”, the binding entry was “binds”.

The values are drawn from PMC6604950.
